# For some of these results: For expression read-outs the peptide stands for its source gene, whose mRNA was measured; the gene is not named for every peptide.
# Key:
# source genes (mRNA) [1] = test: Expression profiling of source genes by in-house RNASeq of tumor and normal tissues (Table 18, FIG. 2); set-up: species or system human; key: very highly over-expressed in tumors compared to a panel of normal tissues (+++); highly over-expressed in tumors compared to a panel of normal tissues (++); over-expressed in tumors compared to a panel of normal tissues (+); details: source gene of peptide
# HLA-A*02 = test: Identification and relative LC-MS quantitation of HLA-A*02-presented tumor-associated peptides on tissue samples (presentation profiles, Tables 13A, 13B, 15, FIG. 1); set-up: species or system human; key to Presentation score NHL / Presentation score CLL / Presentation score BRCA / Presentation score AML / Presentation score GB / Presentation score NSCLC / Presentation score GBC_CCC / Presentation score UEC / Presentation score MEL / Presentation score OSCAR / Presentation score GC / Presentation score UBC / Presentation score OC / Presentation score RCC / Presentation score CRC / Presentation score PCA / Presentation score HCC / Presentation score PC / Presentation score SCLC: specifically presented on tumors (++++); very highly over-presented on tumors compared to a panel of normal tissues (+++); highly over-presented on tumors compared to a panel of normal tissues (++); over-presented on tumors compared to a panel of normal tissues (+); details: for Peptide Presentation on cancer entities: HLA-A*02-binding tumor-associated peptides
# source genes (mRNA) [2] = test: Gene and exon expression of source genes, TCGA tumor samples compared with normal tissue samples (Lonsdale, 2013) (Table 17); set-up: species or system human
substance,measurement,setting,value
21: peptide found in MAD2L1 (gene looked up) (AIQDEIRSV; listed as Homo sapiens) [compound 21],Expression score BRCA,source genes (mRNA) [1]; BRCA tumors vs panel of normal tissues,+
same,Expression score AML,source genes (mRNA) [1]; acute myeloid leukemia (N = 11) vs panel of normal tissues,+
same,Expression score CRC,source genes (mRNA) [1]; colorectal cancer (N = 20) vs panel of normal tissues,+
same,Expression score OSCAR,source genes (mRNA) [1]; esophageal cancer incl. gastric-esophageal junction (N = 11) vs panel of normal tissues,+
same,Expression score GBC_CCC,source genes (mRNA) [1]; gallbladder adenocarcinoma and cholangiocarcinoma (N = 3) vs panel of normal tissues,+
same,Expression score GC,source genes (mRNA) [1]; gastric cancer (N = 11) vs panel of normal tissues,+
same,Expression score GB,source genes (mRNA) [1]; glioblastoma (N = 24) vs panel of normal tissues,+
same,Expression score NHL,source genes (mRNA) [1]; non-Hodgkin lymphoma (N = 10) vs panel of normal tissues,+++
same,Expression score NSCLC,source genes (mRNA) [1]; non-small cell lung cancer (N = 11) vs panel of normal tissues,+
same,Expression score OC,source genes (mRNA) [1]; ovarian cancer (N = 12) vs panel of normal tissues,+
same,Expression score PC,source genes (mRNA) [1]; pancreatic cancer (N = 26) vs panel of normal tissues,+
same,Expression score SCLC,source genes (mRNA) [1]; small cell lung cancer (N = 10) vs panel of normal tissues,++
same,Expression score UBC,source genes (mRNA) [1]; urinary bladder cancer (N = 10) vs panel of normal tissues,+
same,Expression score UEC,source genes (mRNA) [1]; uterine cancer (N = 10) vs panel of normal tissues,+
same,Presentation score BRCA,"HLA-A*02; HLA-A*02 peptides, breast cancer (N = 17) vs panel of normal tissues (N = 262)",++++
same,Presentation score OSCAR,"HLA-A*02; HLA-A*02 peptides, esophageal cancer, including cancer of the gastric-esophageal junction (N = 17) vs panel of normal tissues (N = 262)",++++
same,Presentation score GB,"HLA-A*02; HLA-A*02 peptides, glioblastoma (N = 41) vs panel of normal tissues (N = 262)",++++
same,Presentation score NHL,"HLA-A*02; HLA-A*02 peptides, non-Hodgkin lymphoma (N = 18) vs panel of normal tissues (N = 262)",++++
same,Presentation score NSCLC,"HLA-A*02; HLA-A*02 peptides, non-small cell lung cancer (N = 90) vs panel of normal tissues (N = 262)",++++
same,Presentation score OC,"HLA-A*02; HLA-A*02 peptides, ovarian cancer (N = 20) vs panel of normal tissues (N = 262)",++++
same,Peptide Presentation on cancer entities,"HLA-A*02; Table 13A, cancer entities on which the peptide was found presented","GB, NSCLC, OSCAR, OC, BRCA, NHL"
same,Peptide Presentation on cancer entities,"HLA-A*02; Table 13B, presentation on additional cancer entities","MEL, CRC, AML"
same,"Target coverage: over-expression category of source gene, LAML","source genes (mRNA) [2]; Acute Myeloid Leukemia (N = 173), cutoff more than 2-fold above highest 75% percentile of normal tissue samples",A (>=50% of tumors above the cutoff)
same,"Target coverage: over-expression category of source gene, BLCA","source genes (mRNA) [2]; Bladder urothelial carcinoma (N = 408), cutoff more than 2-fold above highest 75% percentile of normal tissue samples",A (>=50% of tumors above the cutoff)
same,"Target coverage: over-expression category of source gene, BRCA","source genes (mRNA) [2]; Breast cancer (N = 1104), cutoff more than 2-fold above highest 75% percentile of high and medium risk normal tissue samples",A (>=50% of tumors above the cutoff)
same,"Target coverage: over-expression category of source gene, CHOL","source genes (mRNA) [2]; Cholangiocarcinoma (N = 36), cutoff more than 2-fold above highest 75% percentile of normal tissue samples","C (>=5% of tumors above the cutoff, but <20%)"
same,"Target coverage: over-expression category of source gene, READ","source genes (mRNA) [2]; Colon and rectal adenocarcinoma (N = 167), cutoff more than 2-fold above highest 75% percentile of normal tissue samples",A (>=50% of tumors above the cutoff)
same,"Target coverage: over-expression category of source gene, COAD","source genes (mRNA) [2]; Colon and rectal adenocarcinoma (N = 462), cutoff more than 2-fold above highest 75% percentile of normal tissue samples",A (>=50% of tumors above the cutoff)
same,"Target coverage: over-expression category of source gene, ESCA","source genes (mRNA) [2]; Esophageal cancer (N = 185), cutoff more than 2-fold above highest 75% percentile of normal tissue samples",A (>=50% of tumors above the cutoff)
same,"Target coverage: over-expression category of source gene, GBM","source genes (mRNA) [2]; Glioblastoma multiforme (N = 169), cutoff more than 2-fold above highest 75% percentile of normal tissue samples",A (>=50% of tumors above the cutoff)
same,"Target coverage: over-expression category of source gene, LIHC","source genes (mRNA) [2]; Liver hepatocellular carcinoma (N = 374), cutoff more than 2-fold above highest 75% percentile of normal tissue samples","C (>=5% of tumors above the cutoff, but <20%)"
same,"Target coverage: over-expression category of source gene, LGG","source genes (mRNA) [2]; Lower grade glioma (N = 534), cutoff more than 2-fold above highest 75% percentile of normal tissue samples","C (>=5% of tumors above the cutoff, but <20%)"
same,"Target coverage: over-expression category of source gene, LUAD","source genes (mRNA) [2]; Lung adenocarcinoma (N = 517), cutoff more than 2-fold above highest 75% percentile of normal tissue samples","B (>= 20% of tumors above the cutoff, but <50%)"
same,"Target coverage: over-expression category of source gene, LUSC","source genes (mRNA) [2]; Lung squamous cell carcinoma (N = 503), cutoff more than 2-fold above highest 75% percentile of normal tissue samples",A (>=50% of tumors above the cutoff)
same,"Target coverage: over-expression category of source gene, DLBC","source genes (mRNA) [2]; Lymphoid neoplasm diffuse large B-cell lymphoma (N = 48), cutoff more than 2-fold above highest 75% percentile of normal tissue samples",A (>=50% of tumors above the cutoff)
same,"Target coverage: over-expression category of source gene, OV","source genes (mRNA) [2]; Ovarian serous cystadenocarcinoma (N = 309), cutoff more than 2-fold above highest 75% percentile of normal tissue samples",A (>=50% of tumors above the cutoff)
same,"Target coverage: over-expression category of source gene, PAAD","source genes (mRNA) [2]; Pancreatic ductal adenocarcinoma (N = 179), cutoff more than 2-fold above highest 75% percentile of normal tissue samples","C (>=5% of tumors above the cutoff, but <20%)"
same,"Target coverage: over-expression category of source gene, SKCM","source genes (mRNA) [2]; Skin cutaneous melanoma (N = 473), cutoff more than 2-fold above highest 75% percentile of normal tissue samples",A (>=50% of tumors above the cutoff)
same,"Target coverage: over-expression category of source gene, STAD","source genes (mRNA) [2]; Stomach adenocarcinoma (N = 415), cutoff more than 2-fold above highest 75% percentile of normal tissue samples",A (>=50% of tumors above the cutoff)
same,"Target coverage: over-expression category of source gene, UCEC","source genes (mRNA) [2]; Uterine corpus endometrial carcinoma (N = 546), cutoff more than 2-fold above highest 75% percentile of normal tissue samples","B (>= 20% of tumors above the cutoff, but <50%)"

# Reference: patent US20170189504A1, “NOVEL PEPTIDES AND COMBINATION OF PEPTIDES FOR USE IN IMMUNOTHERAPY AGAINST VARIOUS CANCERS” (immatics biotechnologies GmbH, priority 2015, published 2017)
